Data reported in ChEMBL document CHEMBL4196150, “Structurally Diverse Highly Oxygenated Triterpenoids from the Roots of Ailanthus altissima and Their Cytotoxicity” (J Nat Prod, 2018).

System: HeLa
Experiment: Cytotoxicity against human HeLa cells after 72 hrs by MTT assay
Assay type: functional, cell-based

Molecule COc1cc2c(c(OC)c1OC)-c1ccc(OC)c(=O)cc1[C@@H](NC(C)=O)CC2 [COLCHICINE] has an IC50 of 27 nM.
